In US20050222043A1, “Use of proteasome inhibitor in the treatment of fibrotic diseases” (priority 2002, published 2005):
Peptide text beside a SMILES is read from it. * marks the point of attachment. Cbz = O=C(OCc1ccccc1)*

System: spontaneously hypertensive rats (SH-rats)
Assay: Animal study: tolerability, blood pressure, weights, blood values in SH-rats
Assay type: in vivo, rat
Protocol: Male SH-rats of the same age were obtained from the Jackson Laboratory, Maine, USA. The animals were maintained according to the international guidelines for the keeping und use of laboratory animals. 6-week-old rats were treated for 12 weeks with MG132 (1 mg per kg body weight), 0,1% DMSO as solvent control or with physiological saline (n=10 per group, daily intraperitoneal injection). The animals were fed with a high salt diet (drinking water with 2% sodium chloride). The blood pressure was measured weekly by means of the standard tail-cuff method. The blood values and the standard laboratory markers of the renal and hepatic functions were determined 6 weeks after the treatment and at the end of the study by means of standard methods. At the end of the study, the animals were anaesthetised by means of an intraperitoneal injection of a 20% urethane solution (0,9 g per kg body weight) and the left-ventricular pressure parameters were determined as being described by Saragoca, M. et al. (1981) Hypertension, 3, 380-385. The organs were withdrawn, weighed and either shock-frozen in liquid nitrogen or embedded in paraffin for the histological analysis. Since no difference was observed between the DMSO-treated and the salt-treated SH-rats in respect to the above mentioned parameters, the DMSO-treated animals served as a control for the MG132-treatment.

With `CC(C)C[C@@H](C=O)NC(=O)[C@H](CC(C)C)NC(=O)[C@H](CC(C)C)NC(=O)OCc1ccccc1` [MG132, Z-Leu-Leu-Leu-al] (Cbz-Leu-Leu-Leu-aldehyde) the “HG/KG (heart weight/body weight)” value (1 mg/kg MG132) was 4.1 ± 0.34 mg/g, the “Heart Weight” value (1 mg/kg MG132) was 1.18 ± 0.07 g and the “Systolic BD (blood pressure)” value (1 mg/kg MG132, tail-cuff) was 191.43 ± 11.2 mm Hg. The “change in heart weight (in words)” value (12 weeks) was “no significant change” and the “change in systolic blood pressure (in words)” value (12 weeks) was “no significant change”.
